Some of the results follow. Many values rest on one well or one pass, so single values are uncertain.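 Imaging used 1,536-well plates; nuclei positive for cleaved PARP by antibody were divided by total DNA-stained nuclei to yield the apoptosis fraction. Doses for screening kept most cells viable, and cell lines differ markedly in resting and induced cleaved-PARP levels.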

Some test systems named below: WM115; WM1716; WM1745; WM3526; WM3619; WM451Lu.
Experiment in all cases: cleaved PARP positive nuclei fraction relative to DMSO control; melanoma cells; higher = more apoptosis
Holding throughout (settings): library dose: low library concentration; 72 h

For the compound `Cc1cc(N2CCOCC2)cc2[nH]c(-c3c(NC[C@@H](O)c4cccc(Cl)c4)cc[nH]c3=O)nc12` + COC(=O)c1sccc1S(=O)(=O)Nc1ccc(Nc2ccccc2)cc1OC [GSK0660] (first compound 0.2 µM, partner dose 1 µM), the “cleaved PARP positive nuclei fraction” value with WM115 was found to be 125%; in the assay on WM1716 it was 31.9%; with WM1745, 110%; with WM3526, 123%; in the assay with WM3619 it was 102%; with WM451Lu, 44.6%.
As for `CC1(C)NC(=O)N(c2ccc([N+](=O)[O-])c(C(F)(F)F)c2)C1=O` [nilutamide] + O=c1cc(-c2cccc3c2Sc2ccccc2S3)oc(N2CCOCC2)c1 [KU55933] (first compound 1 µM, partner dose 1 µM), the “cleaved PARP positive nuclei fraction” value in the assay with WM115 was 43.1%; with WM1716, 134%; in the assay with WM1745, 97%; in the assay on WM3526, 56.8%; with WM3619, 96.8%; in the assay with WM451Lu, 38.8%.
Regarding `Cn1nnc2c(C(N)=O)ncn2c1=O` [temozolomide] + Cc1cc([N+](=O)[O-])ccc1NS(=O)(=O)c1cc(Cl)ccc1Cl [FH535] (first compound 2 µM, partner dose 1 µM), the “cleaved PARP positive nuclei fraction” value in the assay on WM115 amounted to 79.7%; with WM1716 it was 92.7%; with WM1745 it was 112%; with WM3526, 184%; in the assay with WM3619, 74.9%; in the assay with WM451Lu, 302%.
As to `Cc1cc(N2CCOCC2)cc2[nH]c(-c3c(NC[C@@H](O)c4cccc(Cl)c4)cc[nH]c3=O)nc12` + O=C(O)C(=O)Nc1sc2c(c1C(=O)O)CCNC2 [TCS401] (first compound 0.2 µM, partner dose 1.66667 µM), the “cleaved PARP positive nuclei fraction” value in the assay with WM115 amounted to 81.5%; with WM1716 it was 83.7%; with WM1745, 125%; with WM3526 it was 18.9%; in the assay on WM3619, 81%; in the assay with WM451Lu it was 84.7%.
With `Nc1cccc2c1CN(C1CCC(=O)NC1=O)C2=O` (stereo not drawn) [lenalidomide] + CCc1ccc(CCOc2ccc(CC3SC(=O)NC3=O)cc2)nc1 [pioglitazone] (first compound 1 µM, partner dose 2 µM), the “cleaved PARP positive nuclei fraction” value in the assay on WM115 came out at 92.9%; with WM1716 it was 95.2%; in the assay on WM1745, 108%; with WM3526 it was 77.4%; in the assay on WM3619, 91.9%; in the assay on WM451Lu it was 296%.
For the compound `C=CCn1c(=O)c2cnc(Nc3ccc(N4CCN(C)CC4)cc3)nc2n1-c1cccc(C(C)(C)O)n1` + O=C1NC(=O)/C(=C/c2ccc(-c3ccc(F)cc3O)o2)S1 [AS252424] (first compound 0.02 µM, partner dose 1 µM), the “cleaved PARP positive nuclei fraction” value was 98% with WM115; 81.4% with WM1716; 107% in the assay on WM1745; 75.1% in the assay on WM3526; 95.7% in the assay with WM3619; 24.4% in the assay on WM451Lu.
Consider `OCCn1cc(-c2cnc3nnn(Cc4ccc5ncccc5c4)c3n2)cn1` + C[C@@H]1CCN(C(=O)CC#N)C[C@@H]1N(C)c1ncnc2[nH]ccc12 [CP690550] (first compound 1 µM, partner dose 1 µM), for which the “cleaved PARP positive nuclei fraction” value was determined as 58.4% in the assay on WM115; 46.5% with WM1716; 175% in the assay with WM1745; 85.9% in the assay on WM3526; 92.9% with WM3619; 63.6% in the assay on WM451Lu.
Take `C#Cc1cccc(Nc2ncnc3cc(OCCOC)c(OCCOC)cc23)c1` [erlotinib] + Oc1cc(-c2nc(-c3ccccc3)[nH]c2-c2ccncc2)ccc1Cl [L779450] (first compound 0.8 µM, partner dose 0.2 µM): the “cleaved PARP positive nuclei fraction” value in the assay on WM115 came to 78.8%; in the assay on WM1716, 114%; in the assay on WM1745, 135%; with WM3526 it was 93.1%; with WM3619, 133%; in the assay on WM451Lu, 58.5%.
Consider `C=CCn1c(=O)c2cnc(Nc3ccc(N4CCN(C)CC4)cc3)nc2n1-c1cccc(C(C)(C)O)n1` + O=c1cc(-c2cccc3c2Sc2ccccc2S3)oc(N2CCOCC2)c1 [KU55933] (first compound 0.02 µM, partner dose 1 µM), for which the “cleaved PARP positive nuclei fraction” value came out at 75.1% with WM115; 64.9% in the assay with WM1716; 136% in the assay on WM1745; 161% in the assay on WM3526; 224% with WM3619; 120% in the assay on WM451Lu.
Take `OCc1c[nH]c2ccccc12` [Indole-3-carbinol] + Cn1cncc1[C@@](N)(c1ccc(Cl)cc1)c1ccc2c(c1)c(-c1cccc(Cl)c1)cc(=O)n2C [tipifarnib] (first compound 0.8 µM, partner dose 0.01 µM): the “cleaved PARP positive nuclei fraction” value came out at 138% in the assay on WM115; 97.4% with WM1716; 92.9% in the assay with WM1745; 58.6% in the assay with WM3526; 103% with WM3619; 36.4% in the assay with WM451Lu.
Turning to `Cn1nnc2c(C(N)=O)ncn2c1=O` [temozolomide] + NCC(=O)Nc1ccc(-n2nc(C(F)(F)F)cc2-c2ccc3c(ccc4ccccc43)c2)cc1 [OSU03012] (first compound 2 µM, partner dose 1 µM), the “cleaved PARP positive nuclei fraction” value in the assay with WM115 stood at 65.2%; in the assay with WM1716, 146%; with WM1745 it was 92.6%; in the assay on WM3526, 94.9%; with WM3619, 94%; in the assay on WM451Lu, 145%.
As to `C=CCNC1=C2C[C@@H](C)C[C@H](OC)[C@H](O)[C@@H](C)/C=C(\C)[C@H](OC(N)=O)[C@@H](OC)/C=C\C=C(/C)C(=O)NC(=CC1=O)C2=O` [Tanespimycin] + Cc1ccc(NC(=O)c2cccc(N(C)C)c2)cc1NC(=O)c1ccc(O)cc1 [ZM336372] (first compound 0.002 µM, partner dose 2 µM), the “cleaved PARP positive nuclei fraction” value with WM115 came out at 47.8%; with WM1716 it was 64.2%; with WM1745 it was 98.7%; in the assay on WM3526, 102%; with WM3619 it was 84%; with WM451Lu it was 152%.
In the case of `COc1cc(Nc2ncc(F)c(Nc3ccc4c(n3)NC(=O)C(C)(C)O4)n2)cc(OC)c1OC` [Tamatinib] + CC(C)CCN1c2nc(Nc3cc(F)c(O)c(F)c3)ncc2N(C)C(=O)C1C [BID1870] (first compound 0.4 µM, partner dose 0.2 µM), the “cleaved PARP positive nuclei fraction” value with WM115 amounted to 62.4%; in the assay with WM1716 it was 98.3%; with WM1745, 145%; in the assay with WM3526 it was 82.7%; in the assay on WM3619, 100%; in the assay with WM451Lu, 69.9%.

The values are drawn from the supplement of paper PMC4604168 (melanoma cell lines).
